Among the data in patent US4108987A (Merck & Co., Inc., priority 1977, dated 1978) are isolated mass values, retold here.

HELM strings list residues between dots; [ac] is acetyl, [am] amide, other brackets name non-standard units.

This data set can be described thus: general procedure: Boc solid-phase peptide synthesis; -O-CH2-phi-resin; diphenylphosphoryl azide (cyclisation). The conditions noted are these: whole synthesis, scale 75 mmole.

Consider “PEPTIDE1{P.[dF].P.[dF].P.[dF]}$PEPTIDE1,PEPTIDE1,1:R1-6:R2$$$V2.0”, for which the isolated mass by setting is: (run 1) 32.8 grams; (run 2) 6.24 g.
